In data set [1] the target is NF-kB p65 (NFkb65) (UniProt Q04206). As to the kind of experiment: competition with a labelled probe. To be noted: purified recombinant protein, protein details: Panomics.
Data set [2] shares this target. Kind of data set: EMSA. The following applies: purified recombinant protein; protein details: Panomics; label: 5' IRDye 700.
Data set [3] concerns the target Sp1 (UniProt P08047). Kind of data set: competition with a labelled probe. The following applies: 100:1 unlabeled mutant had no impact; purified recombinant protein; protein details: Promega; variant of YZ9.
Data set [4] has as its target Sp1 (UniProt P08047). As to the kind of experiment: EMSA. To be noted: purified recombinant protein; protein details: Promega; label: 5' IRDye 700.
In data set [5] the target is Sp1 (UniProt P08047). Kind of data set: activity assay. To be noted: complex isolated on polyacrylamide column then microarray, purified recombinant protein, protein details: Promega.
Data set [6] addresses Estrogen receptor alpha (UniProt P03372). Kind of data set: competition with a labelled probe. The following applies: with E2; 100:1 unlabeled mutant had no impact; purified recombinant protein; protein details: Invitrogen; variant of YZ11.
The target is the same in data set [7]. Kind of data set: EMSA. To be noted: with E2; supershift with antibody; purified recombinant protein; protein details: Invitrogen; label: 5' IRDye 700.

The chains behind the UniProt entries cited, without tags or fusion partners. Residues count along the entry.
UniProt Q04206, whole entry: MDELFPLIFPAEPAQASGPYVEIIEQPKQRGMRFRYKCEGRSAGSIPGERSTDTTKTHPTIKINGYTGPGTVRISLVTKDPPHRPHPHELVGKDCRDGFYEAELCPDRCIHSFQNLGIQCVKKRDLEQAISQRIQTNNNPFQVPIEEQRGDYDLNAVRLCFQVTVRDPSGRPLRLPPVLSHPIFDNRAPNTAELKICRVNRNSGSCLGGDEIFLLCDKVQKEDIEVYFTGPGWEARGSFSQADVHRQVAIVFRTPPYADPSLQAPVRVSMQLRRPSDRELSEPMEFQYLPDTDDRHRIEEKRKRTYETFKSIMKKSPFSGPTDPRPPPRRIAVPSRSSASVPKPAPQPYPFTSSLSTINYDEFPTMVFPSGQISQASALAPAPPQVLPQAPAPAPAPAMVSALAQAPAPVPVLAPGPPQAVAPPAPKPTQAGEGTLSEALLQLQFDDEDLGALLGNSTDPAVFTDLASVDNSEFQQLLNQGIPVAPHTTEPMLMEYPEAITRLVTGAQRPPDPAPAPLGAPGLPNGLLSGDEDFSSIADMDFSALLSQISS
UniProt P08047, 2-785: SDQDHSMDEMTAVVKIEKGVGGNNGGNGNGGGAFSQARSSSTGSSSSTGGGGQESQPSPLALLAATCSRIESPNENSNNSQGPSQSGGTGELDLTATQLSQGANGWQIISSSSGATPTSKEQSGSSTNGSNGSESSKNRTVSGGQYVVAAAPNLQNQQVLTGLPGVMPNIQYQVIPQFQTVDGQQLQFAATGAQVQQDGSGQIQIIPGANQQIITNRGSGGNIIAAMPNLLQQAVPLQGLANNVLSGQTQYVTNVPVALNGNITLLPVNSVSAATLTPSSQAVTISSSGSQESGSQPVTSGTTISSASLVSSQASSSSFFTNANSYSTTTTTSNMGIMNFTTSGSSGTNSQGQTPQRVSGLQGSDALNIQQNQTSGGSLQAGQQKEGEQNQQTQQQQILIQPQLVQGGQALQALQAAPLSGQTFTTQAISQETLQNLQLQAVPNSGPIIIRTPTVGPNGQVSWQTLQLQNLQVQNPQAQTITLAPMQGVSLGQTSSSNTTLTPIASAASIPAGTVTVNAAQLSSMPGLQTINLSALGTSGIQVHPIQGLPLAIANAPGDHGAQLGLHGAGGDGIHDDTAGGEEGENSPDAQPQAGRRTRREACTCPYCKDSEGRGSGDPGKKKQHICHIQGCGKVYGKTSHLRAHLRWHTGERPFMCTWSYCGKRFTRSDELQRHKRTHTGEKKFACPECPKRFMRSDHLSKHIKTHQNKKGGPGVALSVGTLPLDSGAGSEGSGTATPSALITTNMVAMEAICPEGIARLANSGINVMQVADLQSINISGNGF
UniProt P03372, whole entry: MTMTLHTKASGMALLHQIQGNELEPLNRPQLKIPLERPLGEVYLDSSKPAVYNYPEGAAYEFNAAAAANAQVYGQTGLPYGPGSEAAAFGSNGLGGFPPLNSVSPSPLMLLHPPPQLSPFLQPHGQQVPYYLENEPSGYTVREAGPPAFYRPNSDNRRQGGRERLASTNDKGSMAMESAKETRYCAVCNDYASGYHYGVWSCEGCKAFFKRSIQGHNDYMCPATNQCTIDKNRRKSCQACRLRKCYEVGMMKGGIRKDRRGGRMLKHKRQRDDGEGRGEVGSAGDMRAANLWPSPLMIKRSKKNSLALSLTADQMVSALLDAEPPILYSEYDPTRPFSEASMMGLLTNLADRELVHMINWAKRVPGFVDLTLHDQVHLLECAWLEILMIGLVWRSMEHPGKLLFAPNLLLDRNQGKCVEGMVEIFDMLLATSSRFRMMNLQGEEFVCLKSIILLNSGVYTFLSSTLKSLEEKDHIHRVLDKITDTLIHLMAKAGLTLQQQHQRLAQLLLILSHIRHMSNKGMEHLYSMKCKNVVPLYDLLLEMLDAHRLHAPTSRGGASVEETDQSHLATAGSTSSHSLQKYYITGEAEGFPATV

For some of these results: The exact form of at least one protein or probe is not confirmed. For some of these results: Negatives hold for the conditions tested.

Consider “AGCTTCAGAGGGGACTAAACGAGAGGTTTTTTGACTAGACCATTCAAAGCT [YZ8]”, for which the binding result with NF-kB p65 (NFkb65) [1] (100:1 unlabeled mutant did not affect YZ7 binding, variant of YZ7) is given as “no binding”.

As for “AGCTTCAGAGGGGACTTTCCGAGAGGTTTTTTGACTAGACCATTCAAAGCT [YZ7]”, the binding result with NF-kB p65 (NFkb65) [2] was “binds”.

As for “ATTCGATCGGGAAAGGGCGAGCGTTATCCCAACTTCGAATCTCATTT [YZ10]”, the binding result with Sp1 [3] is “no binding”.

Turning to “ATTCGATCGGGGCGGGGCGAGCGTTATCCCAACTTCGAATCTCATTT [YZ9]”, the binding result with Sp1 [4] is listed as “binds”.

Take “CCTGCCAGGTCGCGCTGCCCTCCTTCTACCATGCCTTAGGAGAATTGTTTTGTTT / GGTAGAAGGAGGGCAGCGCGACCTGGCAGG [YZ-11 (Table 17)]”: the activity on this sequence with Sp1 [5] (label: IRDye 700 or Cy3, counted as no …) came out at 0 signal.

Regarding “CGTGGAATTTCCTCTGTTGTATAGTTTGAGGGATGCTATGT [YZ5]”, the binding result in the data set with NF-kB p65 (NFkb65) [2] is reported as “binds”.

In the case of “CGTTAACTTTCCTCTGTTGTATAGTTTGAGGGATGCTATGT [YZ6]”, the binding result with NF-kB p65 (NFkb65) [1] (100:1 unlabeled mutant did not affect YZ5 binding, variant of YZ5) is on record as “no binding”.

As for “GTCCAAAGTCAGAACACAGTGATTTGATCAATGCCTTAGGAGAATTGTTTTGTTT [YZ12]”, the binding result with Estrogen receptor alpha [6] is recorded as “no binding”.

“GTCCAAAGTCAGGTCACAGTGACCTGATCAAAGTTATGCCTTAGGAGAATTGTTTTGTTT [YZ11]”: the binding result with Estrogen receptor alpha [7] was “binds”.

For “TCCTAGCTTCAGAGGGGACTTTCCGAGAGGACCTGAAGAAATGGTTTTGAATCAT / CCTCTCGGAAAGTCCCCTCTGAAGCTAGGA [YZ-7 (Table 17)]”, the activity on this sequence in the data set with Sp1 [5] (printed YZ-7f tag does not match Y-7t, label: Cy3, counted as no effect) stood at 0 signal.
